At least one structure is not confirmed: it was looked up by name or label, or the drawing left a doubt.
System: N2a (ECACC) mouse neuroblastoma cells
Test: Cell viability by MTT reduction test in N2a cells, with and without Aβ1-42 prefibrillar aggregates
Type: cell-based
Conditions: Example 1 cell experiments
Procedure: N2a (ECACC) mouse neuroblastoma cells, plated in the presence of MEM integrated with non-essential amino acids, 10% FCS, antibiotics and glutamine, were exposed for 48 h to micromolar levels of oleuropein aglycone and/or glutathione thioesters (GST), in the presence and in the absence of prefibrillar aggregates of Aβ1-42 peptides (Lambert M, et al. J. Neurochem. 2001, 79:595-605). […] In the control plates (CTRL) the cells were incubated under the same conditions in the presence of the culture medium alone. The following were then evaluated: • the state of cell viability through the MTT reduction test (Pensalfini A et al., Free
Rad Biol Med 2008, 44: 1624-1636). • the level of mTOR substrate phosphorylation of kinase p70 S6 (mTOR P) by western blot analysis and subsequent densitometry (Grossi C, et al., PLoS ONE 2013, 8: e71702) • the level of intracellular antioxidant capacity (ACi) through hydrosolublescavenger doses in the cellular lysates in chemiluminescence, using • the Pholasin photoprotein (ABEL Antioxidant Test Kit, Knight Scientific Ltd., UK) as reported in Cecchi C., et al. Neurobiol. Aging 28: 863-876, 2007.
ACi values were correct for the % of viable cells. AP=toxic prefibrillar aggregates.

Compound: OCCc1ccc(O)c(O)c1 [hydroxytyrosol]
- Comparison of the results among glycated oleuropein, oleuropein aglycone and hydroxytyrosol: No significant differences

— patent publication US20200093929A1, “PHARMACEUTICAL COMPOSITION FOR THE PREVENTION AND TREATMENT OF MEMORY AND COGNITIVE DEFICITS RELATED TO AGEING” (IGEA PHARMA N.V., priority 2017, published 2020)
